# Laboratory results from PubChem BioAssay AID1487 (National Center for Advancing Translational Sciences (NCATS), 2009).
# Values joined by “and” are separate entries in the source; they are usually repeats but may differ in a detail not shown here. Equal entries are not always repeated. The list shows a part of the results. Shown are side measurements of this screen, not its main read-out; they come without a call. The list favours compounds with an active or inconclusive main result. Words in brackets tell the shape of the fitted curve; partial curves, single points and poor fits give uncertain potencies.
# Assay: qHTS Assay for Modulators of Lamin A Splicing
# Conditions: HeLa LMNA splicing GFP/RFP minigene ratio, 48 h
# Summary of the method: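 S3 HeLa cells stably expressing lamin A-EGFP splicing minigene plus DsRed2, 600 cells/well, 48 h compound exposure at 37C. Laser-scanning cytometry; analysed as GFP (500-530 nm)/RFP (575-640 nm) total intensity ratio; 0.5% DMSO vehicle.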
# [1] = measured here: RFP viability control channel
# [2] = measured here: GFP splicing reporter channel
structure (smiles),measurement,setting,value
CCCCCCCn1c(=N)n(CC(=O)c2ccco2)c2ccccc21,AC50,[1],"12.6 µM [rising, partial curve, poor fit]"
COc1ccc(-n2c(O)c(C=NC3CC3)c(=O)[nH]c2=O)cc1,AC50,[1],"1.58 µM [falling, partial curve, poor fit]"
CCOc1cc(/C=N/O)ccc1OCc1ccc(F)cc1,AC50,[2],"35.5 µM [rising, single point]"
CCN(CCCNC(=O)CCCN1C(=O)COc2ccc(C)cc21)c1cccc(C)c1,AC50,[2],"35.5 µM [rising, single point]"
same,AC50,[1],"35.5 µM [rising, single point]"
Cc1sc(NC(=O)c2ccco2)c(CN2CCN(c3ccccn3)CC2)c1C,AC50,[2],"10 µM [rising, partial curve]"
same,AC50,[1],"12.6 µM [rising, partial curve]"
COc1cc(C(=O)O)cc(NC(=O)c2cccs2)c1OC,AC50,[1],"0.00316 µM [falling, full curve, poor fit]"
CCN1CCc2c(sc(NC(=O)CSc3ccccc3)c2-c2nc3ccccc3s2)C1,AC50,[1],"35.5 µM [falling, partial curve, poor fit]"
CCC1=Nc2cc(C(=O)NCCCOC(C)C)ccc2Sc2ccc(C)cc21,AC50,[1],"3.98 µM [rising, single point]"
Cc1cc(Nc2ccc(Br)c(C)c2)n2nc(C)nc2n1,AC50,[1],"12.6 µM [rising, partial curve, poor fit]"
CC(C)CCNC(=O)CN(C(=O)Cn1nnc(-c2ccc(F)cc2)n1)C1CCCC1,AC50,[2],"14.1 µM [rising, single point]"
CCOC(=O)C1=C(N)n2c(s/c(=C\c3ccco3)c2=O)=C(C(=O)OCC)C1c1ccco1 (configuration not stated),AC50,[2],"6.31 µM [falling, full curve]"
same,AC50,[1],"4.47 µM [falling, full curve]"
CCn1c(CSc2nc3ccccc3s2)nnc1SCC(=O)c1ccc(O)c(O)c1,AC50,[1],"15.8 µM [rising, single point]"
COc1ccc(N(C(C)C(=O)N/N=C(\C)C(C)(C)C)S(C)(=O)=O)cc1 (configuration not stated),AC50,[2],"0.316 µM [falling, full curve, poor fit]"
same,AC50,[1],"0.447 µM [falling, full curve]"
CCCCN(C)C(=O)c1ccc2c(c1)N(Cc1cccc(Cl)c1)C(=O)c1ccccc1S2=O (configuration not stated),AC50,[2],"35.5 µM [rising, single point]"
same,AC50,[1],"17.8 µM [rising, single point]"
COc1cc(/C=N/Nc2ncc(C(F)(F)F)cc2Cl)cc(OC)c1OC,AC50,[1],"35.5 µM [rising, single point]"
CC1(C)CC(=O)C(C2(O)C(=O)Nc3ccccc32)CO1 (configuration not stated),AC50,[2],"2.82 µM [rising, partial curve, poor fit]"
same,AC50,[1],"3.98 µM [rising, partial curve]"
CCOC(=O)C1(C)C=C(Nc2ccc(O)cc2)C(=O)N1c1ccc(O)cc1 (configuration not stated),AC50,[1],"12.6 µM [rising, partial curve, poor fit]"
CN1CCN(C(=S)Nc2cccc(Cl)c2)CC1,AC50,[1],"17.8 µM [rising, single point]"
Cc1ccc(S(=O)(=O)N(C)c2ccc(C(=O)N3CCN(Cc4ccc5c(c4)OCO5)CC3)cc2)cc1,AC50,[2],"4.47 µM [rising, partial curve]"
same,AC50,[1],"6.31 µM [rising, partial curve]"
Cc1cc(C(=O)COC(=O)CNC(=O)c2ccccc2)c(C)n1CC1CCCO1 (configuration not stated),AC50,[2],"0.0562 µM [falling, full curve, poor fit]"
O=C(N/N=C/c1ccc(N2CCOCC2)s1)c1ccc(NS(=O)(=O)c2cccs2)cc1,AC50,[2],"8.91 µM [falling, partial curve]"
same,AC50,[1],"20 µM [falling, partial curve, poor fit]"
COc1ccc(OC)c(-c2nc(CN3CCCCC3c3cccnc3)c(C)o2)c1 (configuration not stated),AC50,[2],"3.98 µM [rising, single point]"
COc1ccc2oc(=O)c(-c3nc4ccc(C)cc4[nH]3)cc2c1,AC50,[2],"1.58 µM [rising, single point]"
COc1ccc(N(C2CSC2)S(=O)(=O)c2ccccc2)cc1,AC50,[2],"3.16 µM [rising, partial curve]"
CCOC(=O)c1cc(-c2ccc(F)cc2)n(CCC(=O)NCc2ccc(C)cc2)c1C,AC50,[1],"0.00501 µM [falling, full curve, poor fit]"
Cc1ccc(-n2ncc(C(=O)N3CCN(c4cccc(C)c4C)CC3)c2C2CCNCC2)c(C)c1,AC50,[2],"0.00631 µM [falling, full curve, poor fit]"
same,AC50,[1],"0.00501 µM [falling, full curve, poor fit]"
CC(C)c1nc(SCC(=O)Nc2nc3c(s2)CCCC3)c2ccccc2n1,AC50,[2],"35.5 µM [falling, single point]"
COc1cc(NC(=O)c2cccc(C)c2)c(OC)cc1NC(=O)CN1CCOCC1,AC50,[2],"0.708 µM [rising, single point]"
same,AC50,[1],"0.631 µM [rising, single point]"
CCOC(=O)c1cccc(NC(=O)/C=C/c2ccc([N+](=O)[O-])cc2)c1,AC50,[2],"10 µM [rising, partial curve]"
same,AC50,[1],"17.8 µM [rising, partial curve]"
O=C(N/N=C/c1ccc([N+](=O)[O-])cc1)c1c[nH]c2ccccc12,AC50,[1],"17.8 µM [rising, single point]"
CCOC(=O)c1cc(NC(=O)c2ccco2)ccc1N1CCOCC1,AC50,[1],"0.282 µM [falling, full curve]"
O=C(CCCCC(=O)NC1CCCC1)NC1CCCC1,AC50,[2],"31.6 µM [rising, partial curve]"
CN(C)C(=O)c1ccc(-c2nc(Nc3ccccc3)c3ccccc3n2)cc1,AC50,[2],"25.1 µM [falling, single point]"
same,AC50,[1],"25.1 µM [falling, single point]"
C=CCNC(=O)C1CCN(c2cc(C)nc(-c3ccccc3)n2)CC1,AC50,[2],"0.141 µM [falling, full curve]"
same,AC50,[1],"0.282 µM [falling, full curve, poor fit]"
COc1ccc(N(CC(=O)Nc2cc(C)ccc2OC)S(=O)(=O)c2c(C)noc2C)cc1,AC50,[2],"12.6 µM [rising, single point]"
same,AC50,[1],"31.6 µM [rising, single point]"
Cn1c(SCc2n[nH]c(=S)o2)nnc1-c1ccccc1,AC50,[1],"0.0562 µM [rising, full curve, poor fit]"
CC(=O)O/N=C(/c1nonc1N)N1CCN(c2ccc([N+](=O)[O-])cc2Cl)CC1,AC50,[1],"17.8 µM [rising, single point]"
COc1cccc(NS(=O)(=O)c2ccc3[nH]cc(C(=O)NCCc4ccc(C)cc4)c(=O)c3c2)c1,AC50,[2],"4.47 µM [falling, partial curve]"
C=CC[n+]1c(-c2ccc(OC)cc2)csc1NNC(=O)Nc1ccccc1,AC50,[1],"8.91 µM [rising, partial curve]"
COc1ccccc1C(=O)NCCc1csc(-c2ccc(C(F)(F)F)cc2)n1,AC50,[2],"35.5 µM [falling, single point]"
CC(=O)OC1COC(n2ccc3ccccc32)C(OC(C)=O)C1OC(C)=O (configuration not stated),AC50,[1],"0.501 µM [rising, full curve, poor fit]"
O=C(CN1CCCCC1)NCC1(c2ccccc2)CCCC1,AC50,[2],"0.1 µM [rising, full curve, poor fit]"
same,AC50,[1],"0.0891 µM [rising, full curve, poor fit]"
COC(=O)/C(=C1\Oc2ccc(C(C)(C)C)cc2S1)C(F)(F)F,AC50,[2],"0.1 µM [rising, full curve, poor fit]"
same,AC50,[1],"0.0891 µM [rising, full curve, poor fit]"
CC[C@H](C)C(=O)O[C@H]1C[C@@H](C)C=C2C=C[C@H](C)[C@H](CC[C@@H]3C[C@@H](O)CC(=O)O3)[C@H]21,AC50,[2],"11.2 µM [rising, partial curve, poor fit] and 5.62 µM [falling, partial curve, poor fit]"
same,AC50,[1],"11.2 µM [rising, partial curve, poor fit] and 5.62 µM [falling, partial curve, poor fit]"
O=C(NCc1ccccc1Cl)C1CCC(CNc2nc(=S)[nH]c3ccccc23)CC1 (configuration not stated),AC50,[1],"0.501 µM [falling, full curve, poor fit]"
CCn1ncc(/C=N\NC(=O)Cc2ccc([N+](=O)[O-])cc2)c1C,AC50,[2],"17.8 µM [rising, single point]"
CC(C)C(=O)NC(=S)N1CCc2ccccc21,AC50,[2],"12.6 µM [rising, single point]"
Clc1ccc(OCCn2c(-c3ccco3)nc3ccccc32)cc1,AC50,[2],"20 µM [rising, single point]"
same,AC50,[1],"31.6 µM [rising, single point]"
Cc1cccc(Cn2nnc3c2C(=O)c2ccccc2C3=O)c1,AC50,[2],"22.4 µM [falling, single point]"
Cc1ccc2c(CN3CCN(S(=O)(=O)/C=C/c4ccccc4)CC3)cc(=O)oc2c1,AC50,[1],"0.631 µM [rising, partial curve]"
O=C(COC(=O)CCC1CCCC1)Nc1ccccc1OC(F)F,AC50,[1],"17.8 µM [rising, single point]"
CCN1CCCC1CN(Cc1cc2cc(C)cc(C)c2[nH]c1=O)C(=O)Nc1ccccc1OC (configuration not stated),AC50,[2],"11.2 µM [rising, partial curve, poor fit]"
same,AC50,[1],"11.2 µM [rising, partial curve, poor fit]"
COc1ccc(O)c(/C=N/NC(=O)CSc2nnc(C)n2-c2ccccc2)c1,AC50,[2],"35.5 µM [falling, single point]"

# A second format for some results above:
structure (smiles)	measurement	setting	value
CN(C)C(=O)c1ccc(-c2nc(Nc3ccccc3)c3ccccc3n2)cc1	AC50	[2]	25.1 µM [falling, single point]
same	AC50	[1]	25.1 µM [falling, single point]
C=CCNC(=O)C1CCN(c2cc(C)nc(-c3ccccc3)n2)CC1	AC50	[2]	0.141 µM [falling, full curve]
